Reference: patent publication US7026281B1, “Antagonistic analogs of GH-RH inhibiting IGF-I and -II” (The Administrators of the Tulane Educational Fund, priority 1998, dated 2006)
Some of these results come from one statement about several compounds together. Square brackets hold non-standard residues; d marks the D form. Peptide text beside a SMILES is read from it. * marks the point of attachment. Phe(4-Cl) = N[C@@H](Cc1ccc(Cl)cc1)C(=O)O; hArg = N=C(N)NCCCC[C@H](N)C(=O)O; X1 = O=C(Cc1c[nH]c2ccccc12)*; Nle = CCCC[C@H](N)C(=O)O; Abu = CC[C@H](N)C(=O)O; PhAc = O=C(Cc1ccccc1)*

These molecules were tested on GH release stimulated by hGH-RH(1–29)NH2 (assay: In vivo inhibition of serum GH response in rats). Conditions: 80 μg/kg i.v.
Set-up: species or system rat
Description: GH-RH antagonistic effect of the analogs was tested on young male Sprague-Dawley rats (200–250 g). In each experiment, 5 groups of 7 animals each were used. The compounds (80 μg/kg) and GH-RH(1–29)NH2 (3 μg/kg) were dissolved in 5.5% mannitol and given intravenously to the jugular vein of the rats under Nembutal anesthesia. The time elapsed between the administrations of the antagonist and GH-RH varied between groups, according to the following schedule. The first group of animals received GH-RH injection 5 min after the administration of the antagonist; for the second, third and fourth group of animals, the time interval elapsed between the injection of the antagonist and that of GH-RH was 15, 30, and 60 min, respectively. The control group was first injected with the solvent alone instead of the antagonist, followed by a GH-RH injection 5 min later.
0.4 mL blood samples were taken for GH RIA before the administration of the antagonist (“blood0”), and 5 min after the injection of GH-RH (“blood1”). The GH response in each group was calculated as rGH=(GHblood1/GHblood0), mean±S.E.M. of the individual differences. Relative inhibition of GH response (%) in each group treated was calculated as […].

Row | SMILES | Duration of the inhibitory effect on GH response
1 | CCCC[C@H](NC(=O)[C@@H](NC(=O)[C@H](CC(=O)O)NC(=O)[C@H](CCC(N)=O)NC(=O)[C@H](CC(C)C)NC(=O)[C@H](CC(C)C)NC(=O)[C@H](CCCCN)NC(=O)[C@H](CCCNC(=N)N)NC(=O)[C@H](C)NC(=O)[C@H](CO)NC(=O)[C@H](CC(C)C)NC(=O)[C@H](CCC(N)=O)NC(=O)[C@H](CC)NC(=O)[C@H](CC(C)C)NC(=O)[C@@H](NC(=O)[C@H](CCCCN)NC(=O)[C@H](CCCNC(=N)N)NC(=O)[C@H](Cc1ccc(O)cc1)NC(=O)[C@H](CCCNC(=N)N)NC(=O)[C@H](CC(N)=O)NC(=O)[C@@H](NC(=O)[C@H](Cc1ccc(Cl)cc1)NC(=O)[C@@H](NC(=O)[C@H](C)NC(=O)[C@H](CC(=O)O)NC(=O)[C@@H](CCCNC(=N)N)NC(=O)[C@H](Cc1ccc(O)cc1)NC(=O)Cc1ccccc1)[C@@H](C)CC)[C@@H](C)O)C(C)C)[C@@H](C)CC)C(=O)N[C@H](CCCNC(=N)N)C(=O)N[C@@H](CCCCNC(=N)N)C(N)=O [Peptide 1, [PhAc^0, D-Arg^2, Phe(pCl)^6, Arg^9, Abu^15, Nle^27, D-Arg^28, Har^29]hGH-RH(1–29)NH2] (PhAc-Y[dR]DAI[Phe(4-Cl)]TNRYRKVL[Abu]QLSARKLLQDI[Nle][dR][hArg]-NH2) | at least 30 min
2 | CCCC[C@H](NC(=O)[C@@H](NC(=O)[C@H](CC(=O)O)NC(=O)[C@H](CCC(N)=O)NC(=O)[C@H](CC(C)C)NC(=O)[C@H](CC(C)C)NC(=O)[C@H](CCCCN)NC(=O)[C@H](CCCNC(=N)N)NC(=O)[C@H](C)NC(=O)[C@H](CO)NC(=O)[C@H](CC(C)C)NC(=O)[C@H](CCC(N)=O)NC(=O)[C@H](CC)NC(=O)[C@H](CC(C)C)NC(=O)[C@@H](NC(=O)[C@H](CCCCN)NC(=O)[C@H](CCCNC(=N)N)NC(=O)[C@H](Cc1ccc(O)cc1)NC(=O)[C@H](CCCNC(=N)N)NC(=O)[C@H](CC(N)=O)NC(=O)[C@@H](NC(=O)[C@H](Cc1ccc(Cl)cc1)NC(=O)[C@@H](NC(=O)[C@H](C)NC(=O)[C@H](CC(=O)O)NC(=O)[C@@H](CCCNC(=N)N)NC(=O)[C@H](Cc1ccc(O)cc1)NC(=O)Cc1c[nH]c2ccccc12)[C@@H](C)CC)[C@@H](C)O)C(C)C)[C@@H](C)CC)C(=O)N[C@H](CCCNC(=N)N)C(=O)N[C@@H](CCCCNC(=N)N)C(N)=O [Peptide 2, [IndAc^0, D-Arg^2, Phe(pCl)^6, Arg^9, Abu^15, Nle^27, D-Arg^28, Har^29]hGH-RH(1–29)NH2] (X1-Y[dR]DAI[Phe(4-Cl)]TNRYRKVL[Abu]QLSARKLLQDI[Nle][dR][hArg]-NH2) | at least 30 min
3 | CCCC[C@H](NC(=O)[C@@H](NC(=O)[C@H](CC(=O)O)NC(=O)[C@H](CCC(N)=O)NC(=O)[C@H](CC(C)C)NC(=O)[C@H](CC(C)C)NC(=O)[C@H](CCCCN)NC(=O)[C@H](CCCNC(=N)N)NC(=O)[C@H](C)NC(=O)[C@H](CO)NC(=O)[C@H](CC(C)C)NC(=O)[C@H](CCC(N)=O)NC(=O)[C@H](CC)NC(=O)[C@H](CC(C)C)NC(=O)[C@@H](NC(=O)[C@H](CCCCN)NC(=O)[C@H](CCCNC(=N)N)NC(=O)[C@H](Cc1ccc(OC)cc1)NC(=O)[C@H](CCCCNC(=N)N)NC(=O)[C@H](CC(N)=O)NC(=O)[C@@H](NC(=O)[C@H](Cc1ccc(Cl)cc1)NC(=O)[C@@H](NC(=O)[C@H](C)NC(=O)[C@H](CC(=O)O)NC(=O)[C@@H](CCCNC(=N)N)NC(=O)[C@H](Cc1ccc(O)cc1)NC(=O)Cc1ccccc1)[C@@H](C)CC)[C@@H](C)O)C(C)C)[C@@H](C)CC)C(=O)N[C@H](CCCNC(=N)N)C(=O)N[C@@H](CCCCNC(=N)N)C(N)=O [Peptide 3, [PhAc^0, D-Arg^2, Phe(pCl)^6, Har^9, Tyr(Me)^10, Abu^15, Nle^27, D-Arg^28, Har^29]hGH-RH(1–29)NH2] (PhAc-Y[dR]DAI[Phe(4-Cl)]TN[hArg]Y(Me)RKVL[Abu]QLSARKLLQDI[Nle][dR][hArg]-NH2) | at least 60 min
4 | CCCC[C@H](NC(=O)[C@@H](NC(=O)[C@H](CC(=O)O)NC(=O)[C@H](CCC(N)=O)NC(=O)[C@H](CC(C)C)NC(=O)[C@H](CC(C)C)NC(=O)[C@H](CCCCN)NC(=O)[C@H](CCCNC(=N)N)NC(=O)[C@H](C)NC(=O)[C@H](CO)NC(=O)[C@H](CC(C)C)NC(=O)[C@H](CCC(N)=O)NC(=O)[C@H](CC)NC(=O)[C@H](CC(C)C)NC(=O)[C@@H](NC(=O)[C@H](CCCCN)NC(=O)[C@H](CCCNC(=N)N)NC(=O)[C@H](Cc1ccc(O)cc1)NC(=O)[C@H](CO)NC(=O)[C@H](CC(N)=O)NC(=O)[C@@H](NC(=O)[C@H](Cc1ccc(Cl)cc1)NC(=O)[C@@H](NC(=O)[C@H](C)NC(=O)[C@H](CC(=O)O)NC(=O)[C@@H](CCCNC(=N)N)NC(=O)[C@H](Cc1ccc(O)cc1)NC(=O)Cc1ccccc1)[C@@H](C)CC)[C@@H](C)O)C(C)C)[C@@H](C)CC)C(=O)N[C@H](CCCNC(=N)N)C(=O)N[C@@H](CCCCNC(=N)N)C(N)=O [Peptide 11, [PhAc^0, D-Arg^2, Phe(pCl)^6, Abu^15, Nle^27, D-Arg^28, Har^29]hGH-RH(1–29)NH2] (PhAc-Y[dR]DAI[Phe(4-Cl)]TNSYRKVL[Abu]QLSARKLLQDI[Nle][dR][hArg]-NH2) | at least 60 min
